Test results from publication PMC8594130.
No constants are given. Whether binding was seen depends on the method and setting. Binding seen in cells or lysates may run through a third protein. Some binding calls cover weakened binding; strength is not graded here.

Sequences of proteins named here, by UniProt entry; tags and fusion partners are left off.
UniProt Q61188: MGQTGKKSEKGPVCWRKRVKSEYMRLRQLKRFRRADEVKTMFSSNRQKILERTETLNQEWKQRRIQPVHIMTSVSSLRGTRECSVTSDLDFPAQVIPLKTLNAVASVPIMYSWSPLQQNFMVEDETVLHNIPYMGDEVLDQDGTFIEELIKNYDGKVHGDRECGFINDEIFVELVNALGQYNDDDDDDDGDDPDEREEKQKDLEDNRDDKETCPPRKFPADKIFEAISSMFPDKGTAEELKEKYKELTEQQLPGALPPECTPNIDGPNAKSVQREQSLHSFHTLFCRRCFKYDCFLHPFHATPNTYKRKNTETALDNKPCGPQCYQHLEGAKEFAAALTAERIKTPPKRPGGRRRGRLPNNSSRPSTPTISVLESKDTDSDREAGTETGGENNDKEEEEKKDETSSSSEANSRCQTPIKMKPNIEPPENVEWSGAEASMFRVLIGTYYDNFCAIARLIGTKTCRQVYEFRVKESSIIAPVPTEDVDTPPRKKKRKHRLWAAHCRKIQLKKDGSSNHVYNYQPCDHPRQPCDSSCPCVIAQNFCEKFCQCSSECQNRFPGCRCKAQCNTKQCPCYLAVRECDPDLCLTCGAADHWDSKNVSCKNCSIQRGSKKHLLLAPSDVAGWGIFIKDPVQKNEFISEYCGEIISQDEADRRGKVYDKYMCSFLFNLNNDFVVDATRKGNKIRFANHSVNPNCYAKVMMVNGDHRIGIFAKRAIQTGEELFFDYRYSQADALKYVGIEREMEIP

Target: enhancer of zeste homolog 2 (EZH2) (mouse (endogenous in primary vascular SMCs)) (UniProt Q61188)
Assay: co-IP; SMC lysate incubated with EZH2 antibody (ab191080) and protein A/G beads at 4 °C overnight; precipitate analysed by Western blot for RIG-I

binding: binds
B1: retinoic acid-inducible gene-I (RIG-I) (protein, UniProt Q6Q899 1-926)
chain: MTAEQRQNLQAFRDYIKKILDPTYILSYMSSWLEDEEVQYIQAEKNNKGPMEAASLFLQYLLKLQSEGWFQAFLDALYHAGYCGLCEAIESWDFQKIEKLEEHRLLLRRLEPEFKATVDPNDILSELSECLINQECEEIRQIRDTKGRMAGAEKMAECLIRSDKENWPKVLQLALEKDNSKFSELWIVDKGFKRAESKADEDDGAEASSIQIFIQEEPECQNLSQNPGPPSEASSNNLHSPLKPRNYQLELALPAKKGKNTIICAPTGCGKTFVSLLICEHHLKKFPCGQKGKVVFFANQIPVYEQQATVFSRYFERLGYNIASISGATSDSVSVQHIIEDNDIIILTPQILVNNLNNGAIPSLSVFTLMIFDECHNTSKNHPYNQIMFRYLDHKLGESRDPLPQVVGLTASVGVGDAKTAEEAMQHICKLCAALDASVIATVRDNVAELEQVVYKPQKISRKVASRTSNTFKCIISQLMKETEKLAKDVSEELGKLFQIQNREFGTQKYEQWIVGVHKACSVFQMADKEEESRVCKALFLYTSHLRKYNDALIISEDAQMTDALNYLKAFFHDVREAAFDETERELTRRFEEKLEELEKVSRDPSNENPKLRDLYLVLQEEYHLKPETKTILFVKTRALVDALKKWIEENPALSFLKPGILTGRGRTNRATGMTLPAQKCVLEAFRASGDNNILIATSVADEGIDIAECNLVILYEYVGNVIKMIQTRGRGRARDSKCFLLTSSADVIEKEKANMIKEKIMNESILRLQTWDEMKFGKTVHRIQVNEKLLRDSQHKPQPVPDKENKKLLCGKCKNFACYTADIRVVETSHYTVLGDAFKERFVCKPHPKPKIYDNFEKKAKIFCAKQNCSHDWGIFVRYKTFEIPVIKIESFVVEDIVSGVQNRHSKWKDFHFERIQFDPAEMSV
